Experiment: Cycloaddition of butadiene with ethylene in 2 L autoclave, GC analysis of filtrate
[1] = Comparative Example 1, catalyst solution of Example 3, 80° C., 3 hours, ethylene 400 psig
[2] = 100 mg catalyst (Example 9), 60° C., 7.3 hours at 400 psig, 15.5 hours isolated, 1.2 hours at 400 psig
[3] = 416 mg catalyst (Example 8) in toluene, 60° C., 5 hours, ethylene 400 psig
[4] = catalyst solution of Example 7, 80° C., 5 hours, ethylene 365 psig
[5] = second batch, 300 mg catalyst, 60° C., 6.8 hours at 400 psig, 16 hours isolated, 1.2 hours at 400 psig
[6] = second batch, 600 mg catalyst, 60° C., 75 minutes, ethylene 400 psig

| SMILES | cis-1,4-hexadiene in filtrate (GC) [1] [wt %] | vinylcyclobutane in filtrate (GC) [1] [wt %] | vinylcyclobutane to cis-1,4-hexadiene ratio (Comparative Example 1, catalyst solution of Example 3, 80° C., 3 hours, ethylene 400 psig, ratio to 1) | cis-1,4-hexadiene in filtrate (GC) [2] [wt %] | vinylcyclobutane in filtrate (GC) [2] [wt %] | cis-1,4-hexadiene in filtrate (GC) [3] [wt %] | vinylcyclobutane in filtrate (GC) [3] [wt %] | cis-1,4-hexadiene in filtrate (GC) [4] [wt %] | vinylcyclobutane in filtrate (GC) [4] [wt %] | cis-1,4-hexadiene in filtrate (GC) [5] [wt %] | vinylcyclobutane in filtrate (GC) [5] [wt %] | cis-1,4-hexadiene in filtrate (GC) [6] [wt %] | vinylcyclobutane in filtrate (GC) [6] [wt %] |
| --- | --- | --- | --- | --- | --- | --- | --- | --- | --- | --- | --- | --- | --- |
| C=CC=C.CC(=Nc1c(C)cccc1C)c1cccc(C(C)=Nc2c(C)cccc2C)n1.[Fe] [Catalyst 1, [2,6-Bis(1-(2,6-dimethylphenylimino)ethyl)pyridine] iron butadiene, reference compound] | 2.13 | 77.66 | 36.5 | – | – | – | – | – | – | – | – | – | – |
| C=CC=C.CCCCC(=Nc1c(C)cccc1C)c1cccc(C(CCCC)=Nc2c(C)cccc2C)n1.[Fe] [Catalyst 3, [2,6-Bis(1-(2,6-dimethylphenylimino)pentyl)pyridine] iron butadiene] | – | – | – | 0.21 | 80.34 | 0.49 | 83.02 | 1.33 | 82.57 | 0.26 | 61.30 | 0.26 | 61.30 |
